For part of these data: Protein sequences can lack the tags named with them. For part of these data: For at least one entry, the source does not settle the construct or the ends of the probe.

By UniProt entry, the sequences of proteins in these tests, tags left out. Residues count along the entry.
UniProt O14793, 267-375: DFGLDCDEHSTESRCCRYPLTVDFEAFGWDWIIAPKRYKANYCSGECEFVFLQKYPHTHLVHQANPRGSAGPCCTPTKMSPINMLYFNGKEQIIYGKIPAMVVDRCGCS

Data set [1] addresses GDF8 (myostatin), mature (Homo sapiens) (UniProt O14793). Nature of the data set: binding assay. The conditions noted are these: TrpdU at each W (n in listing), purified recombinant protein, single-stranded DNA.
The target in data set [2] is T1, GDF11, mature (Homo sapiens) (UniProt O95390).
T1 sequence: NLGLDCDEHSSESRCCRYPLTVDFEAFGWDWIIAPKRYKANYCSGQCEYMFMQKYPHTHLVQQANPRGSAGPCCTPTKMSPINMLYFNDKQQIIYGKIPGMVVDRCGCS
In words: binding assay. Particulars: TrpdU at each W (n in listing); with Z-block; purified recombinant protein; protein details: untagged; single-stranded DNA; variant of 14583-49_3.

The Kd is the equilibrium constant for the complex coming apart. For the sequence “ATACAGTCTTAGTGTTAGTGTTCTTTATGAGTCTAGACTG [14583-49_35]”, the Kd in data set [1] was 9.8 nM.

In the case of “ATACGACCTAGTGTTACGAGGTCCTTTATGAGTCTAGACGTA [14583-49_38]”, the Kd in data set [1] was more than 320 nM.

In the case of “ATACGGTCTTAGTGTTAGAGTCCCTTTTATGAGTCTAGATTG [14583-49_36]”, in data set [1], the Kd stood at 17.3 nM.

For “ATTACGGCATTAGTGTTAGAGTCCTTTATGTAGCTCTAGATG [14583-49_37]”, the Kd in data set [1] was more than 320 nM.

Consider GTTAGAGTCCTTTATGAGTCTAG [14583-49_30], for which the binding result in data set [1] (23-mer binds, 24-mer 14583-49_29 slightly better, with Z-block, variant of 14583-49_3) is listed as “binds”.

On to TGTTAGAGTCCTTTATGAGTCTAG [14583-49_29], for which the Kd in data set [2] was more than 320 nM.
